From article doi:10.1101/2024.05.08.593233
Where two headings read alike, the source gives them in different places. Results are given in words; binding and its absence hold for the method and conditions named. Binding seen in cells or lysates may run through a third protein. Here binding means that the protein was enriched with, or labelled near, the bait; the list need not be complete. For some of these results: Tags and fused reporters may be left off the sequences shown.

Amino acid sequences for entries named in this document (tags omitted).
UniProt Q99LI8: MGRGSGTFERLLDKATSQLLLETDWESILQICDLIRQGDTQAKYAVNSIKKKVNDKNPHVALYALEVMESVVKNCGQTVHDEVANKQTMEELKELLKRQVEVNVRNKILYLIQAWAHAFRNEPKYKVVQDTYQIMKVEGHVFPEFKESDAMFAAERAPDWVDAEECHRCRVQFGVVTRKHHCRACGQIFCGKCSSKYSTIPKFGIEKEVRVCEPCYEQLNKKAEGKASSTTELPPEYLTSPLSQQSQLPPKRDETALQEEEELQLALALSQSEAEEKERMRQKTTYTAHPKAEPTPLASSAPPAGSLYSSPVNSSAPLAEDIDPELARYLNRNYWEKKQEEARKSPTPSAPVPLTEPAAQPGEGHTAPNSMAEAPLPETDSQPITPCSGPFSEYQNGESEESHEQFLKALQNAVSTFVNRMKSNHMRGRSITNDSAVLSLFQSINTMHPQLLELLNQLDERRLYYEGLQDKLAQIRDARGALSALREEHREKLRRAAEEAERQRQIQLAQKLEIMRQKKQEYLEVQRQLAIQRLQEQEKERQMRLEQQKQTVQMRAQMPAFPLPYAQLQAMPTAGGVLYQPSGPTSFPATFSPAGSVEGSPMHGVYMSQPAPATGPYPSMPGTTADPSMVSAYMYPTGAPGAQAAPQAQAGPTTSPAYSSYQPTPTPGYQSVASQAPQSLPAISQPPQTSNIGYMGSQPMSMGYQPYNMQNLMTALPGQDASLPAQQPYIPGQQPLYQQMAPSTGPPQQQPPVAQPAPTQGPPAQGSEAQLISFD
UniProt Q9CR39: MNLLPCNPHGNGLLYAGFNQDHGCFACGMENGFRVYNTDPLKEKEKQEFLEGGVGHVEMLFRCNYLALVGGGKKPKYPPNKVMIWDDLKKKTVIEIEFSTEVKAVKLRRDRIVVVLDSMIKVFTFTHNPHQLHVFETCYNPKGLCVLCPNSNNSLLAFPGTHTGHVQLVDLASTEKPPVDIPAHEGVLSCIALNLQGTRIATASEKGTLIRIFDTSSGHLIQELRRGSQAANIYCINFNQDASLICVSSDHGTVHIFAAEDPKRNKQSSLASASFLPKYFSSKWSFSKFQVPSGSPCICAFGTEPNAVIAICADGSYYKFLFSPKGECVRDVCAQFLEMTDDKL
UniProt Q9CX00: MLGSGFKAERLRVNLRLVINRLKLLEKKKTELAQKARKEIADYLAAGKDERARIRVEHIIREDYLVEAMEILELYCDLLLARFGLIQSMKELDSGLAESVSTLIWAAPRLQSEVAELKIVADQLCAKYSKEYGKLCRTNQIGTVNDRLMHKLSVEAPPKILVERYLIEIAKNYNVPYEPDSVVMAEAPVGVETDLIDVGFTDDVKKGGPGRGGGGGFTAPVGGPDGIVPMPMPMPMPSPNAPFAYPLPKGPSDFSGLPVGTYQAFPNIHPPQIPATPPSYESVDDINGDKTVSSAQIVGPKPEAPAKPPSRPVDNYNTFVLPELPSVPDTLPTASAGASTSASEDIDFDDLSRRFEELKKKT

Columns and labels:
Assay in all cases: affinity purification with mass spectrometry
[1] = target: T1, GFP-WIPI2d (stably expressed in MEFs) (UniProt Q9Y4P8)
T1 sequence: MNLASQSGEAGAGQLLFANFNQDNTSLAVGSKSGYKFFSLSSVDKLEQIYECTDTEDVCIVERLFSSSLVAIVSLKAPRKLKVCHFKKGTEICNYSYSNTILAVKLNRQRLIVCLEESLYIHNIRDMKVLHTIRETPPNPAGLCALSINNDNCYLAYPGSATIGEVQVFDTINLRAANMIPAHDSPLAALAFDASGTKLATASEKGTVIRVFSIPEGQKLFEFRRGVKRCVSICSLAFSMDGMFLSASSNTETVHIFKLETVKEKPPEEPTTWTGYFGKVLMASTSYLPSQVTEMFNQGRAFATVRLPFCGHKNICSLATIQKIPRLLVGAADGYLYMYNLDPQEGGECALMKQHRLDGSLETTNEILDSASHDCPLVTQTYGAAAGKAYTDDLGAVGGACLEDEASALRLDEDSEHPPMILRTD

[2] = target: T2, GFP-Rubicon (mouse Rubicon, stably expressed in MEFs) (mouse) (UniProt Q80U62)
T2 sequence: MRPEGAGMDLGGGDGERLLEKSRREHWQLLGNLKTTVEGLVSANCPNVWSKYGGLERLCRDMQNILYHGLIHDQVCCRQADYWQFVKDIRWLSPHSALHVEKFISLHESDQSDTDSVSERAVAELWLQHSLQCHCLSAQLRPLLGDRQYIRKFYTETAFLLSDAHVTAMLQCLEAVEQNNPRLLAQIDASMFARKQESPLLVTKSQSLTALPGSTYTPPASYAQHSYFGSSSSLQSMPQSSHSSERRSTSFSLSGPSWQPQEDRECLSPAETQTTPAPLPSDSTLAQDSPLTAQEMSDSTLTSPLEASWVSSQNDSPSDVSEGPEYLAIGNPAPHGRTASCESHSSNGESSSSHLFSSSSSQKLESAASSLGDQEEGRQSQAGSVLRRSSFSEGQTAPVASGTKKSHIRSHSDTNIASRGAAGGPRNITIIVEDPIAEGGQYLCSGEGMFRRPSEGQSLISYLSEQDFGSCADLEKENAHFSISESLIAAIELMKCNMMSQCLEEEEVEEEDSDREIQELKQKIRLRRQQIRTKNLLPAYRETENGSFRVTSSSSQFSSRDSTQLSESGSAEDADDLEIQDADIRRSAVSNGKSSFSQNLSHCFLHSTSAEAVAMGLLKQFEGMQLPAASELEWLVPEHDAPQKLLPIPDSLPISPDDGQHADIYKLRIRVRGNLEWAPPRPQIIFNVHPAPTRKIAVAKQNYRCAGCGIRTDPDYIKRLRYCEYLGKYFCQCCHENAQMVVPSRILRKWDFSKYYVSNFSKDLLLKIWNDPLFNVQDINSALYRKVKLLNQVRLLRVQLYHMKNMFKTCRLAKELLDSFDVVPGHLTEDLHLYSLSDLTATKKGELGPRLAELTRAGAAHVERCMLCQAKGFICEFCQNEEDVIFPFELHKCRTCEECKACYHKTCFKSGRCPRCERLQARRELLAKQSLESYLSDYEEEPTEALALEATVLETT

[3] = target: T3, Rubicon (bait of the interactome analysis in HeLa Kyoto cells) (UniProt Q92622)
T3 sequence: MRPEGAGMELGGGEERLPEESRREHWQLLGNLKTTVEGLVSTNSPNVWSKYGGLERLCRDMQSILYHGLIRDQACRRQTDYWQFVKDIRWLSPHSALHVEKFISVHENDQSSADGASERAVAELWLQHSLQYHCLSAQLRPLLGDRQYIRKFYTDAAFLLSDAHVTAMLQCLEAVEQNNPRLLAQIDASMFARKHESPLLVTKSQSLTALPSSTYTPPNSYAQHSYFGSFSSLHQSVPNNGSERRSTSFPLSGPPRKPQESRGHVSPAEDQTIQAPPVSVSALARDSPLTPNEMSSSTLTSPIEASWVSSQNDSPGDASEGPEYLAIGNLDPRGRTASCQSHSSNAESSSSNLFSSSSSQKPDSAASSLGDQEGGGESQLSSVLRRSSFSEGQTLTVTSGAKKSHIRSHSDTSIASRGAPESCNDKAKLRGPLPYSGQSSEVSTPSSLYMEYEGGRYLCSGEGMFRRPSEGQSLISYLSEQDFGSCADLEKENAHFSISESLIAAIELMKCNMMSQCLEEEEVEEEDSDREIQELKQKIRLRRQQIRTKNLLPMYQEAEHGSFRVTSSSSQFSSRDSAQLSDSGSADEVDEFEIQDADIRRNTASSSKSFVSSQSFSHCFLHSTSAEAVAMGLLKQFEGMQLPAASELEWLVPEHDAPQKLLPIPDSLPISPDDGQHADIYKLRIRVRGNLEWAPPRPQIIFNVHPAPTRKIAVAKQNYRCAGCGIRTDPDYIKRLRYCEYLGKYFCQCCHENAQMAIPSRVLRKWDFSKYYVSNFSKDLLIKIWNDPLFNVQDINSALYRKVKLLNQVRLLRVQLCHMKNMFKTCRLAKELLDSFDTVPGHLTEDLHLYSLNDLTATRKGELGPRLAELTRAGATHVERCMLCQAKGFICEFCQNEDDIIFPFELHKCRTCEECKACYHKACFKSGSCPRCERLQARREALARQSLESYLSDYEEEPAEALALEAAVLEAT

[4] = target: T2, GFP-Rubicon (mouse Rubicon, stably expressed in MEFs) (mouse); remark: listed apart in the source
[5] = target: T1, GFP-WIPI2d (stably expressed in MEFs); remark: listed apart in the source

HRS (endogenous, MEFs) (from UniProt Q99LI8 1-775)
binding [1]: binds

WIPI3 (endogenous, MEFs) (from UniProt Q9CR39 1-344)
binding [2]: binds

IST1 (endogenous, MEFs) (from UniProt Q9CX00 1-362)
binding [1]: binds

B1: WIPI2 (endogenous, HeLa Kyoto) (protein, UniProt Q9Y4P8 1-454)
chain: MNLASQSGEAGAGQLLFANFNQDNTEVKGASRAAGLGRRAVVWSLAVGSKSGYKFFSLSSVDKLEQIYECTDTEDVCIVERLFSSSLVAIVSLKAPRKLKVCHFKKGTEICNYSYSNTILAVKLNRQRLIVCLEESLYIHNIRDMKVLHTIRETPPNPAGLCALSINNDNCYLAYPGSATIGEVQVFDTINLRAANMIPAHDSPLAALAFDASGTKLATASEKGTVIRVFSIPEGQKLFEFRRGVKRCVSICSLAFSMDGMFLSASSNTETVHIFKLETVKEKPPEEPTTWTGYFGKVLMASTSYLPSQVTEMFNQGRAFATVRLPFCGHKNICSLATIQKIPRLLVGAADGYLYMYNLDPQEGGECALMKQHRLDGSLETTNEILDSASHDCPLVTQTYGAAAGKGTYVPSSPTRLAYTDDLGAVGGACLEDEASALRLDEDSEHPPMILRTD
binding [3]: binds

B2: WIPI2 (endogenous, MEFs) (protein, UniProt Q80W47 1-445)
chain: MNLASQSGEAGAGQLLFANFNQDNTSLAVGSKSGYKFFSLSSVDKLEQIYECTDTEDVCIVERLFSSSLVAIVSLKAPRKLKVCHFKKGTEICNYSYSNTILAVKLNRQRLIVCLEESLYIHNIRDMKVLHTIRETPPNPAGLCALSINNDNCYLAYPGSASIGEVQVFDTINLRAANMIPAHDSPLAALAFDASGTKLATASEKGTVIRVFSIPEGQKLFEFRRGVKRCVSICSLAFSMDGMFLSASSNTETVHIFKLEAVREKPPEEPTTWTGYFGKVLMASTSYLPSQVTEMFNQGRAFATVRLPFCGHKNICSLTTIQKIPRLLVGASDGYLYMYNLDPQEGGECALMRQHRLDGSMETTSEIVDSASHDCPLATQTYGTAAAKGAYVPSSPTRLGKGQDANLEAYTDDLGAVGGACLEDEASALRLDEDSEHPPMILRTD
binding [4]: binds

B3: VPS4B (endogenous, MEFs) (protein, UniProt P46467 1-444)
chain: MASTNTNLQKAIDLASKAAQEDKAGNYEEALQLYQHAVQYFLHVVKYEAQGDKAKQSIRAKCTEYLDRAEKLKEYLKKKEKKPQKPVKEEQSGPVDEKGNDSDGEAESDDPEKKKLQNQLQGAIVIERPNVKWSDVAGLEGAKEALKEAVILPIKFPHLFTGKRTPWRGILLFGPPGTGKSYLAKAVATEANNSTFFSISSSDLVSKWLGESEKLVKNLFQLARENKPSIIFIDEIDSLCGSRSENESEAARRIKTEFLVQMQGVGVDNDGILVLGATNIPWVLDSAIRRRFEKRIYIPLPEAHARAAMFRLHLGSTQNSLTEADFQELGRKTDGYSGADISIIVRDALMQPVRKVQSATHFKKVRGPSRADPNCIVNDLLTPCSPGDPGAIEMTWMDVPGDKLLEPVVSMWDMLRSLSSTKPTVNEQDLLKLKKFTEDFGQEG
binding [5]: binds

B4: VTA1 (endogenous, MEFs) (protein, UniProt Q9CR26 1-309)
chain: MAALAPLPPLPAQFKSIQHHLRTAQEHDKRDPVVAYYCRLYAMQTGMKIDSKTPECRKFLSKLMDQLEALKKQLGDNEAVTQEIVGCAHLENYALKMFLYADNEDRAGRFHKNMIKSFYTASLLIDVITVFGELTDENVKHRKYARWKATYIHNCLKNGETPQAGPVGIEEENDVEENEDVGATSLPTQPPQPSSSSAYDPSNLAPGSYSGIQIPPGAHAPANTPAEVPHSTGVTSNAVQPSPQTVPAAPAVDPDLYTASQGDIRLTPEDFARAQKYCKYAGSALQYEDVGTAVQNLQKALRLLTTGRE
binding [5]: binds
